From ChEMBL document CHEMBL3988442, “University of Dundee, Small-Polar-MMV Screening Library” (2021).

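Whole-cell growth test on Mycobacterium tuberculosis, read after 3 days in glucose-containing 7H9 medium; the read-out is not stated. Concentration: 500 µM. The record gives no direction; compounds that gave an IC50 in retests scored well above the rest, so higher reads as more growth inhibition. Size under these conditions: about 18,000 compounds, about 1,400 of them at 50% or above in at least one test.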

Results are given as percent effect.
The record does not define 0% and 100%; most values in the screen are far below 50% and negative numbers occur (in some assays of this library far below -100).
The compounds are a random part of those screened.

| # | structure | effect |
|---|---|---|
| 1 | `Clc1ccc2oc(N3CCNCC3)nc2c1` | 30.6 |
| 2 | `CC(C)(C(=O)NCc1cccnc1)c1ccccc1` | 23.51 |
| 3 | `CC[C@H](N)C(=O)N1CC(Oc2c(C)cccc2C)C1` | 41.05 |
| 4 | `O=S(=O)(CCNCc1cccnc1)N1CCCC1` | 13.02 |
| 5 | `CCc1nc(CNC)cs1` | 61 |
| 6 | `Cc1c[nH]c(CN2CCCC2c2nc(C)n[nH]2)n1` (centres unmarked) | 13.49 |
| 7 | `CCCN(C(=O)COC)C1CCS(=O)(=O)C1` (centres unmarked) | -2.596 |
| 8 | `O=C1CC(c2ccc(F)cc2F)c2cn[nH]c2N1` (centres unmarked) | 40.21 |
| 9 | `O=C(NC1CCS(=O)(=O)C1)c1cc2cccc(Cl)c2s1` (centres unmarked) | 0.5649 |
| 10 | `CC(C)(C)NC(=O)NCc1cncnc1N` | -13.7 |
| 11 | `Cc1nc(C(=O)NCc2cccs2)ccc1C#N` | 83.36 |
| 12 | `O=C(NC1CCOCC1)c1ccc(Cl)nn1` | -0.1087 |
| 13 | `CNC(=O)C1CCN(S(C)(=O)=O)c2cc(C)ccc2O1` (centres unmarked) | 10.8 |
| 14 | `COc1ccc(Cl)cc1C(=O)N1CCn2cnnc2C1` | 3.582 |
| 15 | `CC1(NC(=O)CCc2ccccc2Br)CCS(=O)(=O)C1` (centres unmarked) | 9.311 |
| 16 | `COc1ccc2cc(CN(C)C(C)=O)c(=O)[nH]c2c1` | -7.329 |
| 17 | `Cn1ccnc1C(NC(=O)C1CC1)c1cccc(F)c1` (centres unmarked) | 12.22 |
| 18 | `CN(C)C(=O)OC1CCNC1` (centres unmarked) | 2.913 |
| 19 | `COCC(=O)NCc1cc(F)cc(F)c1` | 45.47 |
| 20 | `CC(=O)N1CCC(CN(C)Cc2ccc(Br)o2)C1` (centres unmarked) | 50.41 |
| 21 | `CC1(c2ccc(F)cc2)CC(=O)NC1=O` (centres unmarked) | 7.647 |
| 22 | `COc1ccc(CN2CC(N3CCOCC3)C2)cn1` | -12.66 |
| 23 | `c1nc(C2CNCCO2)no1` (centres unmarked) | -6.725 |
| 24 | `CCOc1cc(CNC)cc(Cl)c1OCC(N)=O` | 13.58 |
| 25 | `COCC(=O)N1CCN(CCC(C)C)CC1` | 15.71 |
| 26 | `COc1ccc(NC(=O)[C@H]2CC2(C)C)cc1CO` | 26.36 |
| 27 | `CN(Cc1ccco1)C(=O)CCc1ccc(C#N)cc1` | 103.6 |
| 28 | `CN1C(=O)C(C)(C)c2cc(NC(=O)C3CC3)ccc21` | 39.95 |
| 29 | `NS(=O)(=O)NCc1ccc2c(c1)OCO2` | 32.34 |
| 30 | `CC(CNC(=O)c1ccc(C#N)cc1)N1CCCC1` (centres unmarked) | 21.55 |
| 31 | `Cc1nc(C(=O)NCCN2CCCC2)c(C)s1` | 64.05 |
| 32 | `Cc1cc2nc(CN)[nH]c2cc1C` | 61.26 |
| 33 | `c1cnn(CC2CCNCC2)c1` | -4.667 |
| 34 | `CC(C)NC(=O)CN1CCCN(c2ccccn2)CC1` | 37.48 |
| 35 | `CC(N)c1coc2ccccc12` (centres unmarked) | 26.01 |
| 36 | `O=C(Nc1ccncn1)NC1CCSCC1` | 5.312 |
| 37 | `CC(O)CNC(=O)c1ccc(-c2ccccc2F)o1` (centres unmarked) | 47.33 |
| 38 | `O=C(CCn1cnnc1)Nc1cccc(F)c1` | 18 |
| 39 | `CCNCC(=O)Nc1ccc(N2CCOCC2)cc1` | 6.218 |
| 40 | `CCn1cc(C(=O)Nc2cc(C)on2)cn1` | 20.65 |
| 41 | `Cc1noc(C)c1CN1CCC(C(N)=O)CC1` | -8.107 |
| 42 | `CN1CCC(Sc2nc3cc(Br)cnc3[nH]2)C1=O` (centres unmarked) | 24.78 |
| 43 | `CCn1cnnc1CNCc1c[nH]nc1C` | 2.686 |
| 44 | `CC(Nc1ccn(CC(F)(F)F)n1)C(=O)N1CCCC1` (centres unmarked) | 1.317 |
| 45 | `CCCN1CCC(CNc2ncccc2F)C1` (centres unmarked) | 3.95 |
| 46 | `Cc1cc(C(=O)NCCNc2ncccn2)on1` | 8.583 |
| 47 | `Cc1ccc(SCC(=O)NC(N)=O)nc1` | -9.189 |
| 48 | `NC1CCN(Cc2ccccc2)C1=O` (centres unmarked) | -4.999 |
| 49 | `O=C(CCc1ncc[nH]1)Nc1nc2ccccc2[nH]1` | -12.63 |
| 50 | `Cc1ccc(C(=O)NC2CC(C)(C)NC(C)(C)C2)cn1` | 3.153 |
| 51 | `NC1CCN(c2cccc(Br)c2)C1` (centres unmarked) | 2.461 |
| 52 | `CN(C)C(=O)CNc1ccnc2ccc(Cl)cc12` | -12.65 |
| 53 | `CCN(CC)C(=O)CN(C)C(=O)c1cc(C)ccc1O` | 3.026 |
| 54 | `CNCc1nc(C(F)(F)F)cs1` | 6.283 |
| 55 | `Cc1nc(SCC(N)=O)c(C#N)c2c1CCCC2` | -2.799 |
| 56 | `CC(C)CS(=O)(=O)CCNC(=O)c1ccon1` | 16.22 |
| 57 | `CCN(CC)CC(=O)NCc1cc(O)nc(C)n1` | 8.801 |
| 58 | `Cc1cnc(N2CCC(O)CC2)c(Br)c1` | 63.61 |
| 59 | `O=C(CCC(=O)c1ccccc1)NCc1n[nH]c(=O)[nH]1` | -5.938 |
| 60 | `O=C(NC[C@@H]1C[C@H](F)CN1)c1ccc2ccccc2n1` | 33.73 |
| 61 | `CC(=O)c1c[nH]c(C(=O)Nc2nnc(C)s2)c1` | -10.14 |
| 62 | `CCCNC(=O)c1cccc(CN)c1` | 13.38 |
| 63 | `Cc1cc(S(N)(=O)=O)c(C)o1` | -15.74 |
| 64 | `CCNS(=O)(=O)C1CCN(Cc2cccnc2C)C1` (centres unmarked) | 19.84 |
| 65 | `Cc1cc(CNC(C)Cn2cccn2)no1` (centres unmarked) | 4.033 |
| 66 | `CSCC(=O)N(CCC#N)Cc1cccnc1` | 10.33 |
| 67 | `Cn1nc(C2CCCNC2)n(Cc2ccccc2)c1=O` (centres unmarked) | 11.74 |
| 68 | `CC(=O)c1cccc(OCC(=O)NC2CCCC2)c1` | 76.77 |
| 69 | `CC(C)(C)C(=O)NC1CCCC1` | -7.195 |
| 70 | `O=C(NCCn1ccnc1)NCC1CCOC1` (centres unmarked) | 9.684 |
| 71 | `Cc1n[nH]cc1CNCC(=O)NC(C)C` | -10.8 |
| 72 | `CCOc1cncc(C(=O)NC)c1` | 8.161 |
| 73 | `COc1cc(C#N)ccc1CN[C@H](CO)C(C)C` | 4.47 |
| 74 | `CCNc1ncc(C(=O)N2CCC(N(C)C)C2)cn1` (centres unmarked) | 16 |
| 75 | `O=C(CCCc1cccs1)NC1(CCO)CCOCC1` | 2.801 |
| 76 | `N#Cc1ccc(CN)cc1F` | 22.44 |
| 77 | `COCCN(C)CCNC(=O)c1ccc(C)s1` | 4.267 |
| 78 | `CN(C)C(=O)Cn1cnc2ccsc2c1=O` | -2.906 |
| 79 | `CCO[C@H]1CN(C)C[C@@H]1NC(=O)c1ccc(O)c(C)c1` | 0.979 |
| 80 | `CN1CCNC(=O)C1CC(=O)N1CCCCCCC1` (centres unmarked) | 6.108 |
| 81 | `CN(Cc1ccncc1)S(=O)(=O)c1ccc(C#N)cc1` | 38.72 |
| 82 | `CCNC(=O)[C@@H](NC(=O)c1ccccc1)C(C)C` | 7.429 |
| 83 | `NCC1CN(c2nc3cc(Cl)ccc3o2)CCO1` (centres unmarked) | 70.88 |
| 84 | `CNCC(=O)NC(C)c1ccc(F)c(OC)c1` (centres unmarked) | -0.644 |

The first 10 entries again:

- Clc1ccc2oc(N3CCNCC3)nc2c1 : 30.6%
- CC(C)(C(=O)NCc1cccnc1)c1ccccc1 : 23.51%
- CC[C@H](N)C(=O)N1CC(Oc2c(C)cccc2C)C1 : 41.05%
- O=S(=O)(CCNCc1cccnc1)N1CCCC1 : 13.02%
- CCc1nc(CNC)cs1 : 61%
- Cc1c[nH]c(CN2CCCC2c2nc(C)n[nH]2)n1 (centres unmarked) : 13.49%
- CCCN(C(=O)COC)C1CCS(=O)(=O)C1 (centres unmarked) : -2.596%
- O=C1CC(c2ccc(F)cc2F)c2cn[nH]c2N1 (centres unmarked) : 40.21%
- O=C(NC1CCS(=O)(=O)C1)c1cc2cccc(Cl)c2s1 (centres unmarked) : 0.5649%
- CC(C)(C)NC(=O)NCc1cncnc1N : -13.7%